Data reported in PubChem BioAssay AID603 (National Center for Advancing Translational Sciences (NCATS), 2007).
The list shows a part of the results, in another mix than the full data. Active and inactive are the calls of the source. Calls follow the shape of the dose curve; as a rule, active = well fitted curve in the direction sought with a large enough effect; inconclusive = small, poorly fitted or top-dose-only effect; inactive = flat fitted curve, though single readings scatter.
Potency is read from the fitted curve at half-maximal effect.

Each compound was assayed on DNA polymerase III holoenzyme (E. coli) (assay: qHTS Assay for Inhibitors of DNA Polymerase III Holoenzyme System). Conditions: reconstituted DNA polymerase III holoenzyme replication, biochemical.
Description: NIH Molecular Libraries Screening Centers Network [MLSCN]
NIH Chemical Genomics Center [NCGC]
Assay Provider: Charles McHenry, University of Colorado
E. coli DNA polymerase III holoenzyme complex was assayed for DNA production by fluorescent detection of the double-stranded DNA product with PicoGreen dye. The holoenzyme complex was reconstituted from the following purified protein components: DNA Polymerase III, beta subunit processivity factor, SSB single-stranded DNA binding protein, and Primase. Single-stranded, circular M13Gori was used as a substrate with dNTPs and NTPs also supplied to the substrate reagent. Compounds from the NCGC collection were incubated with the holoenzyme mixture for 15 min at room temperature to allow binding to occur, and then the reaction was started by the addition of substrate. […] Reaction progress was measured in a ViewLux CCD imager in fluorescence intensity mode by using 480 nm excitation and 540 nm emission filter set. […]
Three uL of holoenzyme mixture were dispensed to 1536-well Greiner black solid bottom plates. […] After room temperature incubation for 35 minutes, 1 uL of PicoGreen solution was added to each well and the plates were read 480 nm excitation and 540 nm emission using ViewLux (Perkin-Elmer) High-throughput CCD imager and fluorescence protocol settings. […]
COc1ccc2c(c1)c1c(C)c3cnccc3c(C)c1n2CCCN was tested, and the Potency was active: 794 nM.
